Laboratory results published in publication PMC8124069.
These are yes or no findings as the source states them, for the method shown. Binding seen in cells or lysates may run through a third protein. Some binding calls cover weakened binding; strength is not graded here.

Protein sequences, listed by entry. Tags and fused reporters are not part of them.
UniProt P21281: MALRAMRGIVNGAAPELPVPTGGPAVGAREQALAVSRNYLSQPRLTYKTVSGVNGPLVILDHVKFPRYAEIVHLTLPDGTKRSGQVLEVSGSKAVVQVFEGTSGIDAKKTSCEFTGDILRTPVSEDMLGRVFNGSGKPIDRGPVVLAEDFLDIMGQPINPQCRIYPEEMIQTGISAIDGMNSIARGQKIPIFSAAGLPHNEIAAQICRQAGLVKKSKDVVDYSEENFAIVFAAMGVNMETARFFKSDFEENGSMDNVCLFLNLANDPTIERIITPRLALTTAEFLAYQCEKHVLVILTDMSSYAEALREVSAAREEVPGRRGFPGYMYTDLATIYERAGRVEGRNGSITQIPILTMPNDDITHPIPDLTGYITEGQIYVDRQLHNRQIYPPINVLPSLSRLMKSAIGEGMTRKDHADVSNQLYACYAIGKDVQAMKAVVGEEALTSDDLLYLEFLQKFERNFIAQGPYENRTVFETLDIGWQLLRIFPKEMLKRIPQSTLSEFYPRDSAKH

Target: T1, aldolase A (ALDOA) (human (endogenous in KGN)) (UniProt P04075)
T1 sequence: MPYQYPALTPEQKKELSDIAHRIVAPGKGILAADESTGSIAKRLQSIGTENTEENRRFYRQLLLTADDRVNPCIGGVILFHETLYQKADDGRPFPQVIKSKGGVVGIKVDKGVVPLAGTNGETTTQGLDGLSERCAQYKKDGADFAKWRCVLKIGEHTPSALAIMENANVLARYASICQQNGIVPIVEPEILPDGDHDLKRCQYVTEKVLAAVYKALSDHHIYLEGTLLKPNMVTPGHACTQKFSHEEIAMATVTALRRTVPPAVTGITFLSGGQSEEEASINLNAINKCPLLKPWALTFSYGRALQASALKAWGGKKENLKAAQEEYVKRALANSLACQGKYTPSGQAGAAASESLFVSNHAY
Test: co-IP; KGN cells (ZNF674-AS1 silenced and negative control) lysed in Pierce IP lysis buffer; lysates incubated overnight at 4 °C with anti-ALDOA antibodies, Protein A/G magnetic beads 1 h at room temperature; western blot for ATP6V1B2

ATP6V1B2, a non-catalytic subunit of v-ATPase (from UniProt P21281 1-511)
binding: binds
